Measured values as given in patent US8841077B2, “Biomarkers for amyotrophic lateral sclerosis and methods using the same” (Massachusetts General Hospital, priority 2006, dated 2014).

Assay: Metabolomic profiling (GC-MS/LC-MS) of CSF samples, ALS subjects vs control subjects (Example 1; Tables 3, 4)
Assay type: in vivo, human
[1] = CSF, ALS mean as compared to control mean, T-tests of ALS vs. Controls
[2] = CSF, ALS mean as compared to the control mean
[3] = CSF, mean in ALS samples as compared to control samples
[4] = CSF, mean in ALS samples vs control samples, T-tests

Row | SMILES | % change in ALS [1] [%] | % change in ALS [2] [%] | Increase (+) or Decrease (−) in ALS [3] | Increase (+) or Decrease (−) in ALS [4] | % change in ALS (human, in vivo) [%] | Increase (+) or Decrease (−) in ALS (human, in vivo)
1 | CSCC[C@H](N)C(=O)O [Methionine - 35, Methionine] | 21 | 21 | + | + |  | 
2 | CSC[C@H]1O[C@@H](n2cnc3c(N)ncnc32)[C@H](O)[C@@H]1O [5-S-methyl-5-thioadenosine - 35, 5-S-methyl-5-thioadenosine] | −7 | −7 | − | − |  | 
3 | Nc1ncnc2c1ncn2[C@@H]1O[C@@H]2COP(=O)(O)O[C@H]2[C@H]1O [Adenosine-3-5-cyclic-monophosphate - 35, Adenosine-3-5-cyclic-monophosphate] |  |  |  |  | −8 | −
4 | CC(=O)N[C@H](C(=O)O)C(C)C [N-acetyl-L-valine - 35, N-acetyl-L-valine] | 4 | 4 | + | + |  | 
5 | CC(O)C(=O)O (centres unmarked) [Lactate (previously: Metabolite - 2694) - 35] | 14 |  |  | + |  | 
6 | OCC(O)CO [Glycerol - 9, Glycerol] | 7 | 7 | + | + |  | 
7 | CCC(N)C(=O)O (centres unmarked) [2-amino-butyrate - 9, 2-amino-butyrate] | −65 | −65 | − | − |  | 
8 | CC(O)C(=O)O (centres unmarked) [Lactate (previously: Metabolite - 2563) - 35] | 18 |  |  | + |  | 
9 | O=c1[nH]cnc2nc[nH]c12 [1-7-dihydro-6h-purin-6-one - 35, 1-7-dihydro-6h-purin-6-one] | −13 | −13 | − | − |  | 
10 | O=P(O)(O)OP(=O)(O)O [pyrophosphate - 35, pyrophosphate] | 13 | 13 | + | + |  | 
11 | N=C(N)NCCCC(=O)O [Metabolite - 1842 retired: 4-Guanidinobutanoic acid - 35] |  |  | + | + |  | 
12 | O=CC[C@H](O)[C@H](O)CO [2-deoxy-D-ribose - 35] |  | 12 | + |  |  | 
13 | CC(C)(CO)[C@@H](O)C(=O)NCCC(=O)O [Pantothenic acid - 35, Pantothenic acid] | 27 | 27 | + | + |  | 
14 | O=C(O)[C@@H](O)[C@@H](O)[C@H](O)[C@@H](O)C(=O)O [Glucarate - 35, Glucarate] | 7 | 7 | + | + |  | 
15 | Cc1ncc(CO)c(CN)c1O [Pyridoxamine - 35, Pyridoxamine] | 10 | 10 | + | + |  | 
16 | O=C1CC[C@@H](C(=O)O)N1 [5-oxoproline - 9, 5-oxoproline] | 13 | 13 | + | + |  | 
17 | NC(CCCCC(=O)O)C(=O)O (centres unmarked) [2-amino-heptanedioic acid - 9, 2-amino-heptanedioic acid] | 37 | 37 | + | + |  | 
18 | C[C@H](N)C(=O)O [Alanine - 9, Alanine] | 14 | 14 | + | + |  | 
19 | O[C@H]1[C@H](O)[C@@H](O)[C@H](O)[C@@H](O)[C@H]1O [Inositol - 9, Inositol] | 0 | 0 |  |  |  | 
20 | CC[C@H](C)[C@H](N)C(=O)O [Isoleucine - 9, Isoleucine] | 18 | 18 | + | + |  | 
21 | O=c1[nH]c(=O)c2[nH]c(=O)[nH]c2[nH]1 [Uric acid - 35, Uric acid] | 22 | 22 | + | + |  | 
22 | COc1cc(C(O)C(=O)O)ccc1O (centres unmarked) [4-hydroxy-3-methoxymandelate - 35, 4-hydroxy-3-methoxymandelate] | −6 | −6 | − | − |  | 
23 | C[N+](C)(C)CC(O)CC(=O)[O-] (centres unmarked) [Metabolite - 1336 retired: carnitine - 35] |  | 55 | + |  |  | 

Row | SMILES | % change in ALS [1] [%] | % change in ALS [2] [%] | Increase (+) or Decrease (−) in ALS [3] | Increase (+) or Decrease (−) in ALS [4] | % change in ALS (human, in vivo) [%] | Increase (+) or Decrease (−) in ALS (human, in vivo)
24 | CC(O)C(=O)O (centres unmarked) [Metabolite - 2563 retired: lactate - 35] |  | 18 | + |  |  | 
25 | O=P(O)(O)OC[C@H]1O[C@H](O)[C@H](O)[C@@H]1O [alpha-D-ribose-5-phosphate - 35, alpha-D-ribose-5-phosphate] | −2 | −2 | − | − |  | 
26 | N[C@@H](Cc1ccc(O)c(O)c1)C(=O)O [DOPA - 9, DOPA] | 3 | 3 | + | + |  | 
27 | CCCCCCCCCCCCCCCCCC(=O)O [Octadecanoic acid - 9, Octadecanoic acid] | −5 | −5 | − | − |  | 
28 | CCC(N)C(=O)O (centres unmarked) [2-aminobutanoic acid - 9, 2-aminobutanoic acid] | −4 | −4 | − | − |  | 
29 | O=P(O)(O)OC(CO)CO [Glycerol-2-phosphate (previously Metabolite - 1573) - 35] | 16 |  |  | + |  | 
30 | O=C(O)CCCCCCCCCCCO [12-hydroxydodecanoic acid - 9, 12-hydroxydodecanoic acid] | 0 | 0 |  |  |  | 
31 | Oc1nc(O)c2nc(O)[nH]c2n1 [Metabolite - 1910 retired: uric acid - 35] |  | 22 | + |  |  | 
32 | OC[C@@H](O)[C@H](O)[C@@H](O)CO [Xylitol - 35, Xylitol] | 8 | 8 | + | + |  | 
33 | N[C@@H](Cc1ccc(O)c([N+](=O)[O-])c1)C(=O)O [3-nitro-L-tyrosine - 35, 3-nitro-L-tyrosine] | 10 | 10 | + | + |  | 
34 | Nc1nc2c(ncn2[C@H]2C[C@H](O)[C@@H](CO)O2)c(=O)[nH]1 [2-deoxyguanosine - 35, 2-deoxyguanosine] | 8 | 8 | + | + |  | 
35 | O=C(O)[C@@H]1C[C@@H](O)CN1 (relative stereo) [trans-4-hydroxyproline - 35, trans-4-hydroxyproline] | 19 | 19 | + | + |  | 
36 | O=C(O)CC(O)C(=O)O (centres unmarked) [Malic acid - 35, Malic acid] | −12 | −12 | − | − |  | 
37 | O=C(O)[C@H](O)[C@@H](O)[C@H](O)[C@H](O)CO [Gluconic acid - 9, Gluconic acid] | 0 | 0 |  |  |  | 
38 | N[C@@H](CCC(=O)N[C@@H](Cc1ccc(O)cc1)C(=O)O)C(=O)O [Gamma-L-glutamyl-L-tyrosine - 35, Gamma-L-glutamyl-L-tyrosine] | 18 | 18 | + | + |  | 
39 | CC(O)C(=O)O (centres unmarked) [Metabolite - 3316 retired: lactate - 35] |  | 17 | + |  |  | 
40 | O=c1ccn([C@@H]2O[C@H](CO)[C@@H](O)[C@H]2O)c(=O)[nH]1 [Uridine - 35, Uridine] | −7 | −7 | − | − |  | 
41 | NCCCC(=O)N[C@@H](Cc1c[nH]cn1)C(=O)O [gamma-aminobutyryl-L-histidine - 35, gamma-aminobutyryl-L-histidine] | −7 | −7 | − | − |  | 
42 | CC(=O)N[C@@H](CCC(N)=O)C(=O)O [N-Acetylglutamine - 9, N-Acetylglutamine] | 37 | 37 | + | + |  | 
43 | O=C(O)C(=O)O |  | 8 | + |  |  | 
44 | C[N+](C)(C)CCCC[C@H](N)C(=O)[O-] [N-6-trimethyl-l-lysine - 35, N-6-trimethyl-l-lysine] | 10 | 10 | + | + |  | 
45 | N[C@@H](Cc1ccccc1)C(=O)O [Phenylalanine - 35, Phenylalanine] | 12 | 12 | + | + |  | 
